These are yes or no findings as the source states them, for the method shown.
Molecular target: YgfX (S. oneidensis MR-1)
Assay: two-hybrid; bacterial two-hybrid by adenylate cyclase reconstitution (T25 and T18 fusions, Euromedex) in E. coli BTH101; β-galactosidase activity of overnight cultures, compared to negative and positive controls

binding: no binding
B1: YgfY (protein, UniProt Q8EH90 1-82)
chain: MELMNIARVRWACRRGMLELDVLFQPFVDNVYQDLSDEDKVLFIRLLECEDPELFAWFMGHEVCPDPELARMVVQVRGRAAP
